Experimental data as given in patent US9132134B2, “Methods for treating GI tract disorders” (Neurogastrx, Inc., priority 2012, dated 2015).

Amino acid sequences for entries named in this document (tags omitted).
UniProt P35462, whole entry: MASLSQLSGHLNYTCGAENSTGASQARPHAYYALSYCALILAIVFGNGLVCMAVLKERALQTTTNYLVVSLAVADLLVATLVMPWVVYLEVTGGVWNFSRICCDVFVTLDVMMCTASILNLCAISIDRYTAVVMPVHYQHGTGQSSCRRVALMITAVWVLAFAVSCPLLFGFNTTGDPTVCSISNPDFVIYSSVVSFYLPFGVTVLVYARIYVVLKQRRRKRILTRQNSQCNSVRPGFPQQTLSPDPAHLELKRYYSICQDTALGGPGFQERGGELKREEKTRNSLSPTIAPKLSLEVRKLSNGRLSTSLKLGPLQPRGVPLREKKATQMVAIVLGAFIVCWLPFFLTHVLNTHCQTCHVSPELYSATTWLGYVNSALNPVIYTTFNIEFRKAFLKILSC

Biological target: D3 (Homo sapiens (Human), UniProt P35462)
Experiment: Radioligand binding affinity, D3

## O=c1[nH]c2ccccc2n1CCCN1CCC(n2c(=O)[nH]c3cc(Cl)ccc32)CC1 [Domperidone]
  Ki: 7.5 nM
